The values that follow come from PubChem BioAssay AID1347426 (Functional Genomics Laboratory (NCATS/FGL), 2020).

Hit rate of the full screen: of about 31,000 sequences, about 1,400 (4.5%) were called active.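 Rule for the calls: active = median seed-adjusted z-score above 1 or below -1; inactive = the rest.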 This is one part of the list.

This assay in a line: Novel Modifiers of Survival Motor Neuron (SMN) Protein: Gene Identification via Genome-wide siRNA Screen.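 Note: luminescence tracks full-length SMN protein made from the SMN2 reporter.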 Conditions: HEK293T SMN2-luciferase reporter, siRNA knockdown, 72 h; actives lie on both sides. The procedure, abridged: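 siRNA screen, 10418 genes ×3 siRNAs; 1 pmol/well, lipid reverse transfection into HEK293T SMN2-luc reporter line. 72 h, 37 °C, 5% CO2; ONE-Glo readout. Data: neg-ctrl normalized, log10, MAD; hit = MAD >1.0 or < -1.0.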
Background: In a reporter assay the amount or activity of a reporter protein is the signal.
In the case of AGAUAUUUGUGGACUACGATT against SNRNP35, the median seed-adjusted z-score is inactive: 0.172.

Turning to GUGUUCGACUGUAAAUUCATT against REM1, the median seed-adjusted z-score is inactive: 0.231.

As for GGAUUAUCGACUUCAUAUUTT against NDUFB2, the median seed-adjusted z-score is inactive: 0.063.

Consider GAAAUGCACAGAUGCCUAUTT against LAIR2, for which the median seed-adjusted z-score is inactive: -0.481.

Regarding GCUUGGUAGCAUACAAAGATT against PMM2, the median seed-adjusted z-score is inactive: 0.448.

Turning to CAAGAAAGAGGGUAAAGCATT against LIG1, the median seed-adjusted z-score is inactive: 0.722.

As for GGGUUUUACACUGUCCAAATT against ECEL1, the median seed-adjusted z-score was inactive: -0.301.

For GACUCAACAAGGCAGCAUUTT against BPIL1, the median seed-adjusted z-score was inactive: 0.261.

Take GCGGUUCAGCGAGGAAGAATT against NR2F1: the median seed-adjusted z-score is inactive: 0.259.

UGAUGGUUGUGACAAUUGUTT against SUPT4H1: the median seed-adjusted z-score was active: -1.01.

GGUUAUAAGCUGAGGCAGATT against BCL2L2: the median seed-adjusted z-score was inactive: 0.

Take CUAUAUCCUUGACACCUUATT against ATP6V1G2: the median seed-adjusted z-score was inactive: -0.664.

For CCUCAUAUAUCAUGACCGATT against ZNF607, the median seed-adjusted z-score is inactive: 0.857.

In the case of CCCUCCUCGUGGAACCAUATT against NEURL2, the median seed-adjusted z-score was active: 1.39.

Turning to AUAUCAUGAUGAACAAGCATT against RHO, the median seed-adjusted z-score was inactive: -0.267.

GGGUGGAGUUAUUCGAAAATT against ECT2: the median seed-adjusted z-score is inactive: 0.04.

With GGACUUUGAUCGCUAUCAATT against PLCG1, the median seed-adjusted z-score was inactive: -0.336.

Regarding GCUUGUCACUCUUGCCUAUTT against CNGB3, the median seed-adjusted z-score was inactive: 0.226.

Consider GCAGACAACAUAUGUUUUATT against SLC15A4, for which the median seed-adjusted z-score was inactive: -0.29.

For the sequence CCACUGUACUGAGUGACCATT against HECTD3, the median seed-adjusted z-score was inactive: 0.

As for GCAUAUUGCUAGGAGGGUATT against GLDC, the median seed-adjusted z-score was inactive: 0.

Take AGCUCUUUUUGGGACUAUUTT against GK: the median seed-adjusted z-score was inactive: -0.474.

Turning to CGAUAGAAGAGGUAUAGGATT against ZNF415, the median seed-adjusted z-score was inactive: 0.222.

Take CGCUCUACGGUAACGUGUUTT against POU3F1: the median seed-adjusted z-score was inactive: 0.279.

Take GUCAUUACGUCAUCCUCAATT against ZNF721: the median seed-adjusted z-score is inactive: 0.404.

In the case of CUACCAGUGUUACUUCCAATT against BTN2A3, the median seed-adjusted z-score was inactive: -0.483.

Consider CGACUGGAUUAAGCAGUAUTT against ATP6V1C1, for which the median seed-adjusted z-score was inactive: 0.0821.

On to GAGUUUAACCAGGUGAUAATT against DDX39, for which the median seed-adjusted z-score is inactive: -0.342.

As to GCAUAUCUUUUGCAACGAATT against SOS1, the median seed-adjusted z-score was inactive: 0.

For the sequence GGUUAUCAUGGGAUAUUCATT against SRPK1, the median seed-adjusted z-score is inactive: 0.37.

Regarding GCUCUGCUGUGUUGCACCATT against MRGPRE, the median seed-adjusted z-score is inactive: -0.65.

Regarding GGACAGCAGCGUGAACUAUTT against ALX1, the median seed-adjusted z-score was inactive: -0.556.

As for CUCCAUCGCUAGAUCGAAATT against INPP4A, the median seed-adjusted z-score was inactive: 0.379.

Regarding GAAGGACAUGUACAAGAAATT against ITPKA, the median seed-adjusted z-score is inactive: -0.136.

As to CGAUCAAGGAGGCAGAUUATT against PHF14, the median seed-adjusted z-score was inactive: 0.354.

As for UAACGACUGCUUUAACUGUTT against FHL2, the median seed-adjusted z-score is inactive: 0.475.

Consider GCUUCUCUGCAGGAAAUUATT against PIGL, for which the median seed-adjusted z-score is inactive: 0.827.

For the sequence GCAGCUUAAUGUCAGUCCATT against TRMT5, the median seed-adjusted z-score is inactive: 0.

Turning to CAGACUAUGAUGAAACUCATT against BMX, the median seed-adjusted z-score is inactive: -0.00712.

As for GUAGAGCUGUUGCAAGCAATT against DCTN2, the median seed-adjusted z-score is inactive: 0.339.

For the sequence GGCCCUUAUUCGUCCUGAUTT against LEPROT, the median seed-adjusted z-score is inactive: -0.17.

On to CGCUGCAGAUUCACCAAGATT against ASL, for which the median seed-adjusted z-score was inactive: 0.0344.

In the case of CCGACAGCUUAGUCAAAGATT against BZW2, the median seed-adjusted z-score is inactive: 0.0649.

For GGACAAUUCAGGACCUUUUTT against MPP6, the median seed-adjusted z-score is inactive: -0.625.

With GCUCUAAACUUGGGACUAATT against PFKM, the median seed-adjusted z-score was inactive: -0.362.

As for GACCUUAAGAUACCAGUAUTT against DMAP1, the median seed-adjusted z-score is inactive: 0.342.

For the sequence GCUCUUAAAAUUAAGUACATT against T, the median seed-adjusted z-score was inactive: -0.018.

Consider CGGUAUCACCGUUGAUGAATT against ARID1A, for which the median seed-adjusted z-score was active: -1.14.

Consider GAGACAGUGUUGAUCUGCATT against BEST3, for which the median seed-adjusted z-score is inactive: -0.211.

For CUCUCUCUCGGAAUCUGAATT against POLR2L, the median seed-adjusted z-score was active: -1.19.

In the case of ACUACUACCAAUAAUCAAATT against NEUROD2, the median seed-adjusted z-score was inactive: -0.103.

For CUAGCAUCAUAUCAAGAUATT against MTERF, the median seed-adjusted z-score is inactive: 0.432.

Turning to CACUCACAAACAUAACAAUTT against FKBP14, the median seed-adjusted z-score was inactive: -0.455.

GGACCGCUACUAUAGCUCATT against IL12B: the median seed-adjusted z-score was inactive: 0.409.

In the case of GGGUAGAAAUUGAUCCUGATT against GK5, the median seed-adjusted z-score is inactive: -0.118.

In the case of GGACCACAAGGGAAUACAATT against KHDRBS1, the median seed-adjusted z-score was inactive: 0.0916.

Regarding CCAACUCCAGCGAAAACAUTT against SSBP4, the median seed-adjusted z-score was inactive: 0.254.

GCAAGUACAAAGUAGAUUUTT against MRPL39: the median seed-adjusted z-score is inactive: 0.355.

As to GGGAGGAUUUGAUCGGACATT against SPEN, the median seed-adjusted z-score is active: -1.69.

Turning to CAAACAUCCAUAUCUAUGATT against NMT1, the median seed-adjusted z-score was inactive: 0.18.

On to GAGUCCCAUUUACAGCUAUTT against PFTK2, for which the median seed-adjusted z-score was active: -1.16.

CCCUGAAUUUGGUCAAGCATT against AGTPBP1: the median seed-adjusted z-score is inactive: -0.201.

Turning to CAGAUAACCCUGAAUGACATT against NEDD4L, the median seed-adjusted z-score was inactive: 0.212.

As to GAAUCAUCCAAAGUUGUGATT against ZNF583, the median seed-adjusted z-score is inactive: -0.225.

For GACCAGUCGUUUCUAGAAATT against ADCK2, the median seed-adjusted z-score was inactive: 0.0823.

For AGAUACCUGUCAUCGGUCATT against MRGPRX3, the median seed-adjusted z-score is inactive: -0.175.

Take CGGUCGCUGAAAACCCAAUTT against PCDHGB1: the median seed-adjusted z-score was inactive: -0.482.

As for GCAGCUCACAUAACUGGGATT against TNFSF10, the median seed-adjusted z-score was inactive: 0.

CAACCUUGCGGCAUGCAAATT against PRSSL1: the median seed-adjusted z-score was inactive: -0.221.
